Construct, isoform or probe ends are uncertain for at least one entry.
Molecular target: MobC (UniProt Q209N7)
Test: EMSA
Conditions: 10 mM Mg2+; EMSA: 25 mM Tris-HCl pH 8.0, 10 mM MgCl2, 50 mM NaCl, 0.1 mg/ml BSA, 37 C, 15 min, 20 ul; 2 pmol DNA, 0-20 pmol protein; 1-1.2% agarose in 1xTBE, ethidium bromide; recombinant protein; residues 1-176; protein details: N-terminal His6 (pET28a); probe letters rebuilt from the primers and the genome

GCGCATGCTTTTCTCGTTGGAGGGTGATCAGGCAATCGGGCAGGACACCATCAAACAGCTCGTTGTTAAAGTGATCATATGCCCGCTGTAGTTCGTCGTAAGCCTGCAATGTTGGTTTCATCTAGTGCCCTGCTCCGTGTATTGGATTGCACAATCTATAACCATTATGCGGCAGCCTTTTGGATTGCACAATCCAAAGTTAGGGGAAGCCGACGAGCCAGGGAGCCCCGCGACCTGGTGAGCCTGGCCGAAGGCCAAAAGCCACTGCAAAACCGAAAAATTTCGTACGTACGAAAAAACATGGGGGGGTTAGAACTAGGGCAGGATTCTAGAATTGCTAGCGTCTGCCGCCGCTTGTGCTAAAATTGCACCTGTCCCCCCCTGCCCCCCCATGTTTAAAGAGGTCGTTAATGGCAAAGAGCTATCGGATCCGC (double strand) [mobCp mutIX 417 bp]
half-maximal binding: 40 nM
